# Results from one PubChem assay

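Uptake of anthrax lethal toxin into cultured cells, read by FRET (460/530 nm ratio) and reported from the 460 nm channel; the cell line is not named here.
Each compound was tested as a concentration series from about 0.0005 to 40 µM.
The number is the fitted AC50 of the 460 nm signal alone; lower values mean a more potent effect. A falling signal goes with compounds filed as inhibitors or cytotoxic, a rising one with activators or fluorescent compounds (inferred from the filed classes).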

Values are in nM.
Common to all entries: measured here: 460 nm channel.
This is a side read-out of the assay, for part of the compounds, not drawn at random.
Potencies fitted to partial, single-point or poorly fitting curves are rough.
The first word of each remark tells which way the curve ran; it can be opposite to the aim of the assay.

| structure | AC50 (nM) | curve as filed |
|---|---|---|
| `N#CC(C(=O)NC1CCCCC1)c1nc2ccccc2nc1N1CCCCC1` (stereo not drawn) | 794.3 | falling, full curve, poor fit |
| `Cc1cc(C)cc(C(=O)N(C)[C@H](Cc2ccc(-c3ccccc3)cc2)C(=O)N[C@@H](Cc2c[nH]c3ccccc23)C(=O)O)c1` | 12589 | falling, single point |
| `CCc1c(C)nc2cc(-c3cc(OC)cc(OC)c3)nn2c1N1CCCC1` | 25118 | falling, single point |
| `COc1ccc(-c2[nH]ncc2-c2cnn(-c3ccccc3)c2)c(O)c1` | 10000 | falling, partial curve |
| `O=C(Nc1ccc2ccccc2c1)[C@H]1C[C@@H]1[C@H](NP(=O)(c1ccccc1)c1ccccc1)c1ccccc1` | 31622 | falling, single point |
| `COc1ccc(S(=O)(=O)Cc2ccc(C(=O)NCc3ccccn3)o2)cc1` | 31622 | rising, single point |
| `O=C(NCc1cccnc1)c1ccc2c(c1)OCO2` | 7943 | falling, partial curve |
| `Cn1c(=O)c2c(nc(CN3CCOCC3)n2CC(=O)c2ccccc2)n(C)c1=O` | 5012 | falling, single point |
| `Cc1cc(N2CCN(C(c3ccccc3)c3ccc(Cl)cc3)CC2)n2ncnc2n1` (stereo not drawn) | 3162 | falling, single point |
| `CCCCc1c(C(=O)O)cc(OC)cc1C(=O)O` | 25.12 | falling, full curve, poor fit |
| `NC[C@H](O)c1ccc(O)c(O)c1` | 794.3 | falling, full curve |
| `CN(C)c1ncc2nc(CCc3ccccc3)c(=O)n(CCc3ccccc3)c2n1` | 15848 | rising, single point |
| `COc1cccc(CNC(=O)Nc2cccs2)c1` | 15848 | falling, partial curve |
| `Cc1cc2c(c(=O)o1)[C@H](O)[C@H]1O[C@@H]1C2=O` | 3981 | falling, single point |
| `Fc1cccc(-c2cc3nc4c(c(N5CCN(c6cnccn6)CC5)n3n2)CCCC4)c1` | 15.85 | falling, full curve |
| `CSc1ccc(S(=O)(=O)NCc2ccc(Cl)cc2)cc1` | 10000 | falling, single point |
| `O=C(CSc1nnc2sc3ccccc3n12)N1CCN(c2ccccc2)CC1` | 125.9 | falling, single point |
| `Cc1noc(C)c1-c1nc(NCc2cccnc2)c2ccccc2n1` | 12589 | rising, partial curve |
| `O=C(CCCCCNc1nc(=S)[nH]c2ccccc12)N1CCN(c2ccccn2)CC1` | 31622 | falling, single point |
| `NN=C(N)N` | 1.995 | rising, full curve, poor fit |
| `COc1ccccc1-c1ccc2ncnc(N3CCOCC3)c2c1` | 7943 | falling, partial curve |
| `CCc1ccc(C2C3=C(CC(C)(C)CC3=O)Nc3c2c(=O)[nH]c2nc(C)nn32)cc1` (stereo not drawn) | 31622 | rising, single point |
| `CCOc1ccc2nc(NC(=O)C3CCCN(S(=O)(=O)c4c(C)noc4C)C3)sc2c1` (stereo not drawn) | 7943 | falling, partial curve |
| `CN(CCc1ccccn1)C(=O)c1nn2c(C(F)(F)F)cc(-c3ccco3)nc2c1Cl` | 1259 | rising, partial curve, poor fit |
| `CCc1nnc(NC(=O)c2ccc(NS(=O)(=O)c3ccccc3)cc2)s1` | 6310 | rising, full curve, poor fit |
| `Cn1c(=O)[nH]c(=O)c2c1nc(Br)n2CCCCSc1nc2ccccc2o1` | 31622 | falling, single point |
| `COC(=O)c1[nH]cnc1C(=O)c1ccccc1` | 501.2 | falling, full curve, poor fit |
| `CCCCOc1ccc(-c2nnn(CC(=O)NCc3ccco3)n2)cc1` | 501.2 | falling, full curve, poor fit |
| `Cn1cccc1C(=O)N1CCC2(CCCN(C(=O)Nc3cccc(C#N)c3)C2)CC1` | 5012 | rising, partial curve |
| `COc1ccc(OC)c(NC(=O)CSc2nc3ccccc3c(=O)n2CCNC(C)=O)c1` | 12589 | rising, single point |
| `COc1ccc(OC)c(NC(=O)Nc2nnc(N3CCC(C)CC3)s2)c1` | 31622 | falling, single point |
| `C[C@@H](C(=O)Nc1ccc2ccccc2c1)[C@H]1C[C@]1(C)[C@H](NP(=O)(c1ccccc1)c1ccccc1)c1ccccc1` | 15848 | falling, partial curve |
| `O=C(c1ccccc1)c1nc[nH]c1C(=O)Nc1ccccn1` | 125.9 | falling, single point |
| `Oc1ccccc1-c1nc(NCC2CCCO2)c2ccccc2n1` (stereo not drawn) | 12589 | falling, partial curve |
| `Clc1ccccc1C(c1ccccc1)(c1ccccc1)n1ccnc1` | 1000 | rising, full curve, poor fit |
| `COc1cccc(Cn2c(=O)cnc3cnc(Nc4ccccc4)nc32)c1` | 12589 | rising, partial curve |

Once more, the final 2:

structure,AC50 (nM),curve as filed
Clc1ccccc1C(c1ccccc1)(c1ccccc1)n1ccnc1,1000,"rising, full curve, poor fit"
COc1cccc(Cn2c(=O)cnc3cnc(Nc4ccccc4)nc32)c1,12589,"rising, partial curve"

From PubChem BioAssay record AID912 (NCATS, 2007).